# Assay results

Source: PubChem BioAssay AID741 (SRMLSC, 2007).

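Viability in percent of cells overexpressing the MRP drug pump, measured with the compound alone and no cytotoxic drug; the cell line is not named here, and no time is given. Each compound is tested alone at 10 µM. The number is percent cell viability with the compound alone; higher viability means the compound is less active, or less toxic, by itself.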

Values are in %. The controls that fix the scale are not given here. Common to all entries: measured here: viability series, compound alone; at 10 µM. This is a side read-out of the assay, for part of the compounds, not drawn at random.

compound,viability (%)
O=C(NCc1cccnc1)c1cn(CCc2ccccc2)nn1,105.6
CCN1CCN(c2nc(-c3ccccn3)nc3ccccc23)CC1,88.27
O=C(Nc1ccc(-n2nncc2-c2ccco2)cc1)c1cccc(F)c1,91.43
Cc1ccc(C)c(N2CCN(C(=O)c3cc4ccccn4n3)CC2)c1,95.98
Cc1ccc(S(=O)(=O)Cc2ccc(C(=O)N3CCN(Cc4ccccc4)CC3)o2)cc1,88.62
CCOc1cccc(C(=O)Nc2ccccc2N2CCN(C(=O)C(C)C)CC2)c1,90.6
Fc1ccc(C2C3=C(Nc4ncnn42)c2ccccc2OC3c2ccncc2)cc1 (centres undefined),89.26
CCN(CC)CCCN=Cc1c(O)n(Cc2ccc(F)cc2)c(=O)[nH]c1=O,99.06
CCCn1c(C)cc(/C=C(\C#N)C(=O)OCC(=O)NC(=O)NC(C)(C)C)c1C,99.5
Cn1c(=O)c2c(nc(N3CCCCCC3)n2Cc2cccc3ccccc23)n(C)c1=O,64.51
Cc1cc(NC(=O)C2=C(O)c3ccccc3S(=O)(=O)N2C)no1,97.57
Cc1ccc(C(=O)CSc2nnc(COc3cccc4cccnc34)o2)cc1,78.44
NC(=O)c1ncn([C@@H]2O[C@H](CO)[C@@H](O)[C@H]2O)c1O,89.9
Cc1ccc(N=C(NOCc2ccc(Cl)cc2Cl)c2nonc2N)c(C)c1,98.41
Cn1c(=O)c2c(nc(CN3CCN(c4ccc(F)cc4)CC3)n2Cc2ccccc2F)n(C)c1=O,86.11
CC1CCc2c(nc3ncnn3c2N2CCN(c3ccccc3)CC2)C1 (centres undefined),80.02
CCOC(=O)Cn1cnc2sc3c(c2c1=O)CCC3,106.3
Cc1ccc(OS(=O)(=O)c2ccccc2)c(/C=N/N=C2\NC(=O)C(C)S2)c1 (centres undefined),95.41
COc1ccc2cc(CCC(C)=O)ccc2c1,104.6
Cc1ccc2oc(=O)c3cnn(CC(=O)N4CCCCC4C)c3c2c1 (centres undefined),99.68
Cc1ccc(NC(=O)Cn2c(=O)n(Cc3ccco3)c(=N)c3c4c(sc32)COC(C)(C)C4)cc1,101.2
O=C(NC1CC1)C1CCN(c2ccc(S(=O)(=O)N3CCOCC3)cc2)CC1,91.78
COc1ccc(CN(C(=O)c2ccccc2OC)C2CCS(=O)(=O)C2)cc1 (centres undefined),100.8
CN1CCc2c(sc3c2c(=O)n(-c2ccccc2)c2nnc(SCc4ccc(F)cc4)n32)C1,93.34
O=C(CSc1nnc(COc2ccccc2)o1)c1ccccc1,104.7
Cc1ccc(CNc2cc(-c3nn4c(C)nnc4s3)ccc2C)s1,97.94
CC1(C)Cc2c(C#N)c(SCCC#N)nc(N3CCOCC3)c2CS1,81.69
CC(C)(C)C1CC=C2C(C#N)=C(N)C(C#N)(C#N)C(c3cccs3)C2C1 (centres undefined),84.23
N#Cc1ccc(-n2c(-c3ccccc3)nnc2-c2ccccc2)cc1C#N,73.61
CCOC(=O)c1cc2c(=O)n3ccccc3nc2n(CCOC)c1=NC(=O)c1ccncc1,74.92
CC(C)C(=O)N1CCN(c2ccccc2NC(=O)c2cccc(Cl)c2)CC1,93.82
COc1ccc(CC(=O)N2CCN(c3ccccn3)CC2)cc1OC,108.2
Cc1ccc(N=C(NOC(=O)c2ccccc2)c2nonc2N)c(C)c1,100.5
CCCCCCN1C=CC(=C/C=C(\C#N)C(=O)OCC)C=C1,79.51
O=C(Nc1ccc2nn(-c3ccccc3)nc2c1)c1ccc2c(c1)OCO2,100.5
COc1ccc(OC)c(NC(=O)CSc2nc3ccccc3c(=O)n2CCNC(C)=O)c1,78.77
CCC(=O)N1CCN(c2ccccc2NC(=O)c2cccc(C)c2)CC1,98.17
COc1ccccc1Nc1nc(N)nc(CN2CCCCCC2)n1,106.1
c1ccc(-n2ncc3c(N4CCN(CCOc5cccc6ccccc56)CC4)ncnc32)cc1,76.94
COc1ccc(C(=O)Nc2ccccc2N2CCN(C(=O)C(C)C)CC2)cc1Cl,92.61
Cn1c(=O)c(NCCc2ccccc2)c2c3c(cccc31)C(=O)c1ccccc1-2,89.71
CCCCC(C)(O)C/C=C/[C@H]1[C@H](O)CC(=O)[C@@H]1CCCCCCC(=O)OC (some centres undefined),84.56
Cc1ccc(-c2nc3ncccn3c2NC2CCCC2)o1,81.67
C=CCn1c(SCC(=O)NCc2ccco2)nnc1-c1ccc2ccccc2n1,91.37
Cc1ccccc1Cn1c(CN2CCc3ccccc3C2)nc2c1c(=O)n(C)c(=O)n2C,76.01
COc1ccc(C2c3c(-c4ccccc4O)n[nH]c3C(=O)N2CCc2ccc(OC)c(OC)c2)cc1 (centres undefined),86.07
CN1CCN(c2nc(-c3ccncc3)nc3ccccc23)CC1,70.08
CN1CCc2c(sc3c2c(=O)n(-c2ccc(Cl)cc2)c2nncn32)C1,102.5
O=C(NCCc1ccccc1)c1cc(-c2ccco2)on1,91.94

The first 4 entries again:

* O=C(NCc1cccnc1)c1cn(CCc2ccccc2)nn1 : viability 105.6%
* CCN1CCN(c2nc(-c3ccccn3)nc3ccccc23)CC1 : viability 88.27%
* O=C(Nc1ccc(-n2nncc2-c2ccco2)cc1)c1cccc(F)c1 : viability 91.43%
* Cc1ccc(C)c(N2CCN(C(=O)c3cc4ccccn4n3)CC2)c1 : viability 95.98%